Results taken from the supplement of paper PMC6411743.
± gives the standard deviation of the averaged measurements. The list shows a part of the results, in another mix than the full data.

Protein sequences, listed by entry. Tags and fused reporters are not part of them. Lines headed by an entry give the natural chain unless they say otherwise; changes in a name come on top.
UniProt Q9Y5M8: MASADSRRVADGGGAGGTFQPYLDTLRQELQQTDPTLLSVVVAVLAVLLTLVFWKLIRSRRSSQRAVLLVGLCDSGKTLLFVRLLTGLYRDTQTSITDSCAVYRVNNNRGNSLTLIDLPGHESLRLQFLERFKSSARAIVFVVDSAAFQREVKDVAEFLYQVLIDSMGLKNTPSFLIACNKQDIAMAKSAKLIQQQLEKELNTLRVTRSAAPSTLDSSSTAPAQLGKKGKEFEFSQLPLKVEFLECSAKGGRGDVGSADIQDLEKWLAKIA
UniProt Q9Y5S1: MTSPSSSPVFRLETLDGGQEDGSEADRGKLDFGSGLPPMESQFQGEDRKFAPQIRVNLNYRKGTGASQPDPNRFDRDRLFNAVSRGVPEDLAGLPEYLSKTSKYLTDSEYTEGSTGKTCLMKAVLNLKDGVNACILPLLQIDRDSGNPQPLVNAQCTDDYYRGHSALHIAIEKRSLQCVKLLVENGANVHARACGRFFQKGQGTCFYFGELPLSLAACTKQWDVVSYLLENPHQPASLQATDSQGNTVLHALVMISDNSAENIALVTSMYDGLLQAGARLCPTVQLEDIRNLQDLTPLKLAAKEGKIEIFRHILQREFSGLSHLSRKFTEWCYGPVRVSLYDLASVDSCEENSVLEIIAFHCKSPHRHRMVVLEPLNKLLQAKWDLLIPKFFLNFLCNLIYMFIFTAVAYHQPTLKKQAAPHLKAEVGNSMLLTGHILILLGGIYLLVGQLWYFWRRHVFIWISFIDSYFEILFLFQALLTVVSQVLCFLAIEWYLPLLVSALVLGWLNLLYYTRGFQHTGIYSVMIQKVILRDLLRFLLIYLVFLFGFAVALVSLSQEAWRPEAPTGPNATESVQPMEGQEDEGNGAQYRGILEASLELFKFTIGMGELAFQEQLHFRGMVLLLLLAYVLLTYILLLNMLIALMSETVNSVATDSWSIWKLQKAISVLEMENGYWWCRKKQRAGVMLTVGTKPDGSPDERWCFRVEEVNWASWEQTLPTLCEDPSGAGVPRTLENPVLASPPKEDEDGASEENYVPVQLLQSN
UniProt Q9Y4P8: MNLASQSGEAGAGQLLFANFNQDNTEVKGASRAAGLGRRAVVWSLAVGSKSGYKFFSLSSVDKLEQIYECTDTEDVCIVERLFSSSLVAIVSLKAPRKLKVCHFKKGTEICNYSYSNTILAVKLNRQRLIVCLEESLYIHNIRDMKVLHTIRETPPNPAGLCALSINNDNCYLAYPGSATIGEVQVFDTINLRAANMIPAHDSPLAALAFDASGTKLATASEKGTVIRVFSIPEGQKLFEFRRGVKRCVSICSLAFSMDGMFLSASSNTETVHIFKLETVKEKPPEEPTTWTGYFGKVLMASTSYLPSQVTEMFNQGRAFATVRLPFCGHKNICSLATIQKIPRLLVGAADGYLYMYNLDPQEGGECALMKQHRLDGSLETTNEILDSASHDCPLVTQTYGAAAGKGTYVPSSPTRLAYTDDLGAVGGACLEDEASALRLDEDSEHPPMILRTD
UniProt Q9Y3R5: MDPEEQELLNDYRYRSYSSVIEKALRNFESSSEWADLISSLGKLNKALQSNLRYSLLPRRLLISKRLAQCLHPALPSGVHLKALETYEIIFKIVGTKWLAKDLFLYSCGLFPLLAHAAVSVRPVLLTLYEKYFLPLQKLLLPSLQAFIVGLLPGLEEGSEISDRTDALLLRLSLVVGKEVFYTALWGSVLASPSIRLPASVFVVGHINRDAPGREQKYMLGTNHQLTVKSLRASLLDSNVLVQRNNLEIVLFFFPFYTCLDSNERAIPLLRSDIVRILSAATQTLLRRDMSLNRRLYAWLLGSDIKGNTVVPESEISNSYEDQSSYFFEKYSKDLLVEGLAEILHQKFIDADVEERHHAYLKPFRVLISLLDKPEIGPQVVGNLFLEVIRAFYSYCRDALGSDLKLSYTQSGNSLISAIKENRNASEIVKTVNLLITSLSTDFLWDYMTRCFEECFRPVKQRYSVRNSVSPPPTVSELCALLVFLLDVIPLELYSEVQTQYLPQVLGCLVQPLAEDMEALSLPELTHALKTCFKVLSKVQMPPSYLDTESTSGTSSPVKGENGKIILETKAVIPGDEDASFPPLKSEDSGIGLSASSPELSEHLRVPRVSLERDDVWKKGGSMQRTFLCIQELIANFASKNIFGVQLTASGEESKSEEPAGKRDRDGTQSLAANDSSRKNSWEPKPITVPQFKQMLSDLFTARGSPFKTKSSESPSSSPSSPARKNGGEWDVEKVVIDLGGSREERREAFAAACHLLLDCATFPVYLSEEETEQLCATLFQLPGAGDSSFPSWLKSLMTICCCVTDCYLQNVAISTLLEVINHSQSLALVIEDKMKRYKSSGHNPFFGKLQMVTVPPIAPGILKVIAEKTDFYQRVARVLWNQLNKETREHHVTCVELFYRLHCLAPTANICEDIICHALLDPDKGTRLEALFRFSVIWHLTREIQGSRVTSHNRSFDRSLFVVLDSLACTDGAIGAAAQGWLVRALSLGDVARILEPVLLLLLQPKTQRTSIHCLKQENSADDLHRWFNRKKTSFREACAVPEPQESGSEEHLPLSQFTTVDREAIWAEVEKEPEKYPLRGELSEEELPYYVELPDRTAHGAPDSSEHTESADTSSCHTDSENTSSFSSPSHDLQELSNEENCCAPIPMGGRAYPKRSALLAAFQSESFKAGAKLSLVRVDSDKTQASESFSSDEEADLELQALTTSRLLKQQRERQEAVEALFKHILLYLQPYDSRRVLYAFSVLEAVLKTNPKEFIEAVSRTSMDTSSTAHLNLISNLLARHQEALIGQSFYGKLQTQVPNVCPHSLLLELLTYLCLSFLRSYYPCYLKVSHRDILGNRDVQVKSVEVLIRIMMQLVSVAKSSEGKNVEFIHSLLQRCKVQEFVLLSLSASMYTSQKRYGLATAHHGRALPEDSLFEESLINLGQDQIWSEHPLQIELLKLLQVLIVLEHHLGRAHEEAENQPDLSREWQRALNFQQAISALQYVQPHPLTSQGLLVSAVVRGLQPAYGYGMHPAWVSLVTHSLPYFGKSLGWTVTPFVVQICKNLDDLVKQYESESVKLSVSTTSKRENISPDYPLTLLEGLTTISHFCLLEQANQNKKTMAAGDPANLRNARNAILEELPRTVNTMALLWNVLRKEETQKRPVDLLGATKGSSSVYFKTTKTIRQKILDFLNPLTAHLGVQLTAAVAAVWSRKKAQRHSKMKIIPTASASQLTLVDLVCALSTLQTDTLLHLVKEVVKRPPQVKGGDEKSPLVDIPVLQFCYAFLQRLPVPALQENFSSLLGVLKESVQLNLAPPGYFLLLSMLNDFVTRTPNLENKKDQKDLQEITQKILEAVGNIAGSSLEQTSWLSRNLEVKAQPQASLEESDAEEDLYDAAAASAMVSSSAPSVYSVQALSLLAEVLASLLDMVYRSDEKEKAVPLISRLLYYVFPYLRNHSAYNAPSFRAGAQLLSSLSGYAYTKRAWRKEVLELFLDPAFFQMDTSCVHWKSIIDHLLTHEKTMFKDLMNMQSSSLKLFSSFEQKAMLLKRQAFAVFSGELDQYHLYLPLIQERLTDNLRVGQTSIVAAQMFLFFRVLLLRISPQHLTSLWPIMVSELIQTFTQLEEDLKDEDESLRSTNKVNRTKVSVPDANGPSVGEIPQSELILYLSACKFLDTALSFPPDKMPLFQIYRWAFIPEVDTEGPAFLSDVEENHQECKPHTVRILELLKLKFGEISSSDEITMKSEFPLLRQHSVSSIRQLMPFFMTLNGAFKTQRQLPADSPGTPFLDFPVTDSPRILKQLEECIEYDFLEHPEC
UniProt Q9Y3P8: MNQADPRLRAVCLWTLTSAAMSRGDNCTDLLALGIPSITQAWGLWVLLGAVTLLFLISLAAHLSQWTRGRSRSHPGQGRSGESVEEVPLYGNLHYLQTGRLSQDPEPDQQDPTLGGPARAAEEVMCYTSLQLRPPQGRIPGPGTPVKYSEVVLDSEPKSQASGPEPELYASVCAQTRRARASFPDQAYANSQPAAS
UniProt Q9Y508: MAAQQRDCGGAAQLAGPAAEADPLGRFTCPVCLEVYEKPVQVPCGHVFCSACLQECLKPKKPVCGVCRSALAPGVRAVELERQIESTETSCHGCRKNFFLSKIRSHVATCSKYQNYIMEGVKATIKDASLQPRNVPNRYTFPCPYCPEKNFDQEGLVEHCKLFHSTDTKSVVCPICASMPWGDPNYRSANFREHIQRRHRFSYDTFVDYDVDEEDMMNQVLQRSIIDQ
UniProt Q9Y421: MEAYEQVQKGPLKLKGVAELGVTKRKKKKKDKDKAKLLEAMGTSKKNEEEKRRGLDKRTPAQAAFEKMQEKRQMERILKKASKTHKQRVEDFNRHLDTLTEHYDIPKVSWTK
UniProt Q9Y639: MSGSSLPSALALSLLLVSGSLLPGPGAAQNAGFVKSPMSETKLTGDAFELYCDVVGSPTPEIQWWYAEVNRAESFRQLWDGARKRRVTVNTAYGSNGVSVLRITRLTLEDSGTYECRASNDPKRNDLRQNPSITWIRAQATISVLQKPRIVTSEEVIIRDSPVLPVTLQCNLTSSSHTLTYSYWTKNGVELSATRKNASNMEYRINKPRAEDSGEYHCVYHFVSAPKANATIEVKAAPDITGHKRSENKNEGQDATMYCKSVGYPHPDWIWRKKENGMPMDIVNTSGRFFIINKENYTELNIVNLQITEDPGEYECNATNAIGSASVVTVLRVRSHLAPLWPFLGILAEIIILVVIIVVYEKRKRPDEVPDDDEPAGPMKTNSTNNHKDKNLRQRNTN
UniProt Q9Y6J9: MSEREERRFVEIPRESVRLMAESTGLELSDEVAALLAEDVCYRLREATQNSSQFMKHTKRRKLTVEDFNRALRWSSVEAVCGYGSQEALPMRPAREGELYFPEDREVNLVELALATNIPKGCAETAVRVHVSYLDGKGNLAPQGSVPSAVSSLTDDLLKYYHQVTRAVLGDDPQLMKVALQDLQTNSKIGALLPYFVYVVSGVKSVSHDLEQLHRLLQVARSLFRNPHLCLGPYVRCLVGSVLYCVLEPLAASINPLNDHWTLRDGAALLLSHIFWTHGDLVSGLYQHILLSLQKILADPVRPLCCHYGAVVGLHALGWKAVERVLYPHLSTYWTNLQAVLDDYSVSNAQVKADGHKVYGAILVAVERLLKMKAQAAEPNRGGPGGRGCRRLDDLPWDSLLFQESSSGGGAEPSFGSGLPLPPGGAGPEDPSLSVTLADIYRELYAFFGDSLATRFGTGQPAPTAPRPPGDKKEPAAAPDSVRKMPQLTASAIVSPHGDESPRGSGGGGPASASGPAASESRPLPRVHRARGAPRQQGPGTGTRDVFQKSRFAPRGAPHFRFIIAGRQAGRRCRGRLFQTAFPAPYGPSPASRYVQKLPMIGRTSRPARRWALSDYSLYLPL
UniProt Q9Y5K5, whole entry: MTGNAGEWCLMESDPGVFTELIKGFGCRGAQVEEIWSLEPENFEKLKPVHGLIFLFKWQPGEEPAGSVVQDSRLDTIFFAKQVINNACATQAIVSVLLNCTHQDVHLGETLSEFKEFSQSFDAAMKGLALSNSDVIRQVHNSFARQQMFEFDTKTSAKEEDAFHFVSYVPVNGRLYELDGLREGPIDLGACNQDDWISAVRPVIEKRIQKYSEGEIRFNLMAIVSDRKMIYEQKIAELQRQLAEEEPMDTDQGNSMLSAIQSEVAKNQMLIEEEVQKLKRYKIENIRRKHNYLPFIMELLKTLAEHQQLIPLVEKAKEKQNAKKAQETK
UniProt Q9Y679: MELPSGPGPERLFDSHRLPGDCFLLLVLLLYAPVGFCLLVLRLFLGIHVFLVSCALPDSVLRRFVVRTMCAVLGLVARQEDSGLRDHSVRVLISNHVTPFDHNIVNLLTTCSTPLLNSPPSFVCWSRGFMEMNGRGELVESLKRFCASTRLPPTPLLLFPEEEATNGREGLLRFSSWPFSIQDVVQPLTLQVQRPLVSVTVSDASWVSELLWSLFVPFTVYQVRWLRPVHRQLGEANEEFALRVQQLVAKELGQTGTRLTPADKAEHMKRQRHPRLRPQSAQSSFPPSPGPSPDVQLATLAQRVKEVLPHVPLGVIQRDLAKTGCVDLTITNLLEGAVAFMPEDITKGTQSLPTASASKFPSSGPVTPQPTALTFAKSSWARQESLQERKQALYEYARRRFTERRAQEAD
UniProt Q9Y617: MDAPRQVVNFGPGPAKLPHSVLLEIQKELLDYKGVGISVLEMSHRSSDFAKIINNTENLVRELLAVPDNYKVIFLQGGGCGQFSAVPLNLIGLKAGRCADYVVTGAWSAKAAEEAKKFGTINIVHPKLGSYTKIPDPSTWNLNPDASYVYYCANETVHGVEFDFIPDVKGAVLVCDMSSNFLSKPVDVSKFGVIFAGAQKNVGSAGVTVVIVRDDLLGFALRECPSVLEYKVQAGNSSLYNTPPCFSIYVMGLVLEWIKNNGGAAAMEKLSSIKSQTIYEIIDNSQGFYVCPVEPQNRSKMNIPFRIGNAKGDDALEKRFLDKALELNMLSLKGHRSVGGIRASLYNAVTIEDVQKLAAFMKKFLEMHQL

Compound: Nc1ncnc2c1ncn2[C@@H]1O[C@H](COP(=O)(O)OP(=O)(O)NP(=O)(O)O)[C@@H](O)[C@H]1O [adenylyl imidodiphosphate]
Assay: NP40-soluble protein abundance relative to vehicle (solubility fold change) (ratio); higher = more soluble protein in presence of AMP-PNP
How it was run: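 Values are fold changes against the detergent-processed vehicle, based on vsn-normalised intensities. Jurkat crude lysate was treated at eight concentrations from 0.1 to 10 mM (10 min at room temperature, then 3 min at 37 °C), solubilised with 0.8% NP40 and benzonase, ultracentrifuged and analysed by TMT-labelled LC-MS/MS over three independent experiments.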

Row | Target | NP40-soluble protein abundance (concentration: 1mM) | NP40-soluble protein abundance (concentration: 2mM) | NP40-soluble protein abundance (concentration: 4mM) | NP40-soluble protein abundance (concentration: 6mM) | NP40-soluble protein abundance (concentration: 8mM) | NP40-soluble protein abundance (concentration: 10mM)
1 | UniProt Q9Y5V3 and related entries | 1 ± 0.08 | 1 ± 0.059 | 0.937 ± 0.08 | 0.869 ± 0.077 | 0.81 ± 0.027 | 0.858 ± 0.048
2 | ARFGEF2 (UniProt Q9Y6D5) | 1.01 ± 0.028 | 0.987 ± 0.039 | 0.995 ± 0.015 | 0.957 ± 0.044 | 0.93 ± 0.036 | 0.923 ± 0.026
3 | UniProt Q9Y450 and related entries | 0.988 ± 0.035 | 1.01 ± 0.025 | 1 ± 0.042 | 1.03 ± 0.035 | 1.03 ± 0.037 | 1.05 ± 0.038
4 | SRPRB (UniProt Q9Y5M8) | 1.05 ± 0.021 | 1.06 ± 0.011 | 1.04 ± 0.021 | 1.08 ± 0.014 | 1.04 ± 0.014 | 1.08 ± 0.033
5 | TRPV2 (UniProt Q9Y5S1) | 0.996 ± 0.022 | 1.026 ± 0.0087 | 1.026 ± 0.01 | 0.989 ± 0.026 | 0.952 ± 0.023 | 0.969 ± 0.038
6 | X5CMH5 and related entries (UniProt Q03519) | 0.964 ± 0.038 | 0.959 ± 0.015 | 0.975 ± 0.036 | 0.982 ± 0.055 | 1.03 ± 0.046 | 0.984 ± 0.04
7 | SNX5 (UniProt Q9Y5X3) | 1.019 ± 0.0086 | 1.05 ± 0.08 | 1.03 ± 0.025 | 1.04 ± 0.031 | 1.01 ± 0.046 | 1.05 ± 0.045
8 | UniProt Q9Y6A4 | 0.952 ± 0.075 | 0.892 ± 0.032 | 0.968 ± 0.07 | 1.03 ± 0.095 | 1.12 ± 0.037 | 1.04 ± 0.085
9 | UniProt Q9Y3V2 and related entries | 0.992 ± 0.033 | 1.014 ± 0.01 | 0.982 ± 0.014 | 0.978 ± 0.05 | 0.992 ± 0.023 | 0.976 ± 0.041
10 | UniProt Q9Y5W8 and related entries | 0.981 ± 0.016 | 0.9806 ± 0.0092 | 0.987 ± 0.013 | 0.989 ± 0.035 | 0.9895 ± 0.0085 | 0.991 ± 0.018
11 | R4GMR5 and related entries (UniProt P48556) | 0.872 ± 0.015 | 0.824 ± 0.047 | 0.841 ± 0.068 | 0.864 ± 0.051 | 0.894 ± 0.07 | 0.859 ± 0.094
12 | UniProt Q9Y4P8 and related entries | 0.996 ± 0.064 | 0.958 ± 0.017 | 1.01 ± 0.057 | 1.03 ± 0.067 | 1.05 ± 0.067 | 1.02 ± 0.051
13 | AFG3L2 (UniProt Q9Y4W6) | 1.03 ± 0.036 | 1 ± 0.11 | 1.02 ± 0.053 | 1.01 ± 0.059 | 1.01 ± 0.058 | 1.01 ± 0.077
14 | UniProt Q9Y3R5 and related entries | 0.993 ± 0.044 | 0.951 ± 0.041 | 0.977 ± 0.011 | 0.96 ± 0.032 | 0.937 ± 0.035 | 0.971 ± 0.029
15 | UniProt Q9Y5L0 and related entries | 0.968 ± 0.031 | 0.9469 ± 0.0033 | 0.986 ± 0.018 | 1.01 ± 0.081 | 1.02 ± 0.092 | 1.01 ± 0.049
16 | UniProt Q9Y3P8 | 1.04 ± 0.034 | 1.04 ± 0.021 | 1 ± 0.033 | 1.01 ± 0.025 | 1 ± 0.044 | 0.974 ± 0.021
17 | RNF114 (UniProt Q9Y508) | 1.034 ± 0.0076 | 0.993 ± 0.021 | 1.03 ± 0.019 | 1.024 ± 0.0039 | 1.04 ± 0.018 | 1 ± 0.013
18 | UTP18 (UniProt Q9Y5J1) | 1.05 ± 0.029 | 1.07 ± 0.048 | 1.1 ± 0.044 | 1.23 ± 0.028 | 1.28 ± 0.062 | 1.36 ± 0.05
19 | UniProt Q9Y421 and related entries | 1.04 ± 0.023 | 1.08 ± 0.054 | 1.05 ± 0.029 | 1.06 ± 0.038 | 1.08 ± 0.044 | 1.1 ± 0.016
20 | TRAF6 (UniProt Q9Y4K3) | 0.957 ± 0.04 | 0.907 ± 0.029 | 0.954 ± 0.055 | 0.937 ± 0.024 | 0.931 ± 0.029 | 0.912 ± 0.014
21 | UniProt Q9Y639 and related entries | 1.01 ± 0.056 | 1.05 ± 0.055 | 1.01 ± 0.056 | 0.986 ± 0.028 | 0.984 ± 0.055 | 0.961 ± 0.025
22 | UniProt Q9Y697 and related entries | 0.998 ± 0.046 | 0.973 ± 0.016 | 1.02 ± 0.026 | 1.05 ± 0.063 | 1.05 ± 0.084 | 1.03 ± 0.066
23 | TAF6L (UniProt Q9Y6J9) | 0.979 ± 0.052 | 0.971 ± 0.029 | 1.01 ± 0.057 | 0.954 ± 0.058 | 0.977 ± 0.061 | 0.967 ± 0.036
24 | UniProt Q9Y5K5 and related entries | 0.964 ± 0.016 | 0.959 ± 0.024 | 0.947 ± 0.026 | 0.949 ± 0.012 | 0.968 ± 0.0098 | 0.958 ± 0.025
25 | CAPN7 (UniProt Q9Y6W3) | 1.02 ± 0.032 | 1 ± 0.053 | 1.03 ± 0.022 | 0.976 ± 0.011 | 0.981 ± 0.022 | 0.99 ± 0.043
26 | UniProt Q9Y679 and related entries | 0.983 ± 0.034 | 0.923 ± 0.081 | 1 ± 0.015 | 0.991 ± 0.052 | 1.03 ± 0.035 | 0.983 ± 0.032
27 | PSAT1 (UniProt Q9Y617) | 0.976 ± 0.02 | 0.898 ± 0.032 | 0.964 ± 0.034 | 1.05 ± 0.096 | 1.05 ± 0.074 | 1.02 ± 0.069
28 | UniProt Q9Y692 and related entries | 0.962 ± 0.018 | 0.9636 ± 0.0022 | 0.97 ± 0.021 | 0.9437 ± 0.0084 | 0.961 ± 0.027 | 0.977 ± 0.0022
29 | OAS3 (UniProt Q9Y6K5) | 1.01 ± 0.012 | 1.02 ± 0.04 | 1.02 ± 0.032 | 0.998 ± 0.033 | 1.02 ± 0.043 | 0.998 ± 0.018

For reference, part of the list above:
Row | Target | NP40-soluble protein abundance (concentration: 1mM) | NP40-soluble protein abundance (concentration: 2mM) | NP40-soluble protein abundance (concentration: 4mM) | NP40-soluble protein abundance (concentration: 6mM) | NP40-soluble protein abundance (concentration: 8mM) | NP40-soluble protein abundance (concentration: 10mM)
22 | UniProt Q9Y697 and related entries | 0.998 ± 0.046 | 0.973 ± 0.016 | 1.02 ± 0.026 | 1.05 ± 0.063 | 1.05 ± 0.084 | 1.03 ± 0.066
23 | TAF6L (UniProt Q9Y6J9) | 0.979 ± 0.052 | 0.971 ± 0.029 | 1.01 ± 0.057 | 0.954 ± 0.058 | 0.977 ± 0.061 | 0.967 ± 0.036
